Measured values published in patent publication US6953811B2, “N-substituted tetrahydropyridines and their use as pesticides” (Syngenta Crop Protection, Inc., priority 2001, dated 2005).
Some of these results come from one statement about several compounds together.

Tests used:
Format in all cases: in vivo
Diabrotica balteata = experiment: Action against Diabrotica balteata larvae; conditions: 400 ppm spray liquor on maize seedlings, 10 second-stage larvae, evaluation 6 days later
Heliothis virescens = experiment: Action against Heliothis virescens caterpillars; conditions: 400 ppm spray liquor on young soya bean plants, 10 first-stage caterpillars, evaluation 6 days later
Plutella xylostella = experiment: Action against Plutella xylostella caterpillars; conditions: 400 ppm spray liquor on young cabbage plants, 10 third-stage caterpillars, evaluation 3 days later

C#CCOC(=O)Nc1ccc(CN2CC=C(C(O)(c3ccc(C(F)(F)F)cc3)c3ccc(C(F)(F)F)cc3)CC2)cc1 [Compound 1.1]
more than 80%: action (percentage reduction in population, % action) (Diabrotica balteata) | action (percentage reduction in population or in feeding damage, % action) (Heliothis virescens) | action (percentage reduction in population or in feeding damage, % action) (Plutella xylostella)

C#CCOC(=O)Nc1ccc(C[N+]2([O-])CC=C(C(O)(c3ccc(C(F)(F)F)cc3)c3ccc(C(F)(F)F)cc3)CC2)cc1 (stereo not drawn) [Compound 1.2]
more than 80%: action (percentage reduction in population, % action) (Diabrotica balteata) | action (percentage reduction in population or in feeding damage, % action) (Heliothis virescens) | action (percentage reduction in population or in feeding damage, % action) (Plutella xylostella)
